Experimental findings from PubChem BioAssay AID244 (DTP/NCI, 2004) are described below.

The experiment deals with CD2F1 mice, Lymphoma 8 ip, survival T/C. As to the kind of experiment: NCI In Vivo Anticancer Drug Screen. Data for tumor model Lymphoma 8 (intraperitoneal) in CD2F1 (CDF1) mice. The settings on record: T/C endpoint: survival time, mean or median, schedule: Q01DX010 (ip), vehicle: saline, higher T/C = longer survival. How it is done: The antitumor activity of compounds was measured in mice bearing transplantable tumors. Survival or tumor size were measured and the results are expressed as the measurement made in the treated group (T) divided by the measurement made in the vehicle treated control group (C). The tumor model used in this assay is Lymphoma 8 (intraperitoneal) in CD2F1 (CDF1) mice

Each structure is given as a SMILES string. The list shows only some results of the screen, not a fair sample: it covers a few groups of compounds. Not every dose and run of a compound is shown. T/C gives the treated animals as a percentage of the vehicle group. Where survival is the endpoint, the PubChem record calls one and a half times the control and up active, and a quarter to a half above the control has no call in these data; cut-offs in other NCI protocols can differ. Some T/C values are marked as having no survivor count here; that says nothing about deaths at the dose. Schedules are NCI's codes, taken here to give the interval after Q, in days (D) or hours (H), and the number of doses after X.

Consider `NC(Cc1cccc(N(CCCl)CCCl)c1)C(=O)O` (stereo not drawn), for which the T/C (dose: 0.63 mg/kg/injection) is 118 % of control [survivor count not shown], the T/C (dose: 1.25 mg/kg/injection) was 154 % of control [survivor count not shown] and the T/C (dose: 2.5 mg/kg/injection) was 109 % of control [survivor count not shown].
